The source gives many values for each of these; only a part stands here.
Test: Stability testing for 25HC3S sodium salt for injection, 30 mg/mL after constitution
Type: physicochemical
Method: Sterile water for injection, USP (6.14 kg) was added into a 10L stainless steel vessel. […] HPbCD, NF (1851.85 g) was added in small portions over 15 minutes with slow stirring into the beaker. The stirring was increased to 250-350 rpm for an additional minimum 30 minutes to form a clear solution. The solution was filtered through a 0.22 micron filter. Filtered vehicle (7 mL) was filled into 10 mL glass vials, which were sealed with 20 mm stoppers, and crimp sealed. The vehicle vials were sterilized with gamma irradiation at approximately 28-32 kGy.
25HC3S sodium salt was micronized by passing through a Fluid Energy Model 00 Jet-O-Mizer Jet Mill. Micronized drug substance (186 mg) was added into a 10 mL glass vial, sealed with 20 mm stoppers, and crimp sealed. The 25HC3S powder vials were sterilized with gamma irradiation at approximately 28-32 kGy
Sterile vehicle (6.0 mL) comprised of 250 mg/mL HPbCD and 10 mM phosphate buffer was added to a vial of 25HC3S micronized powder. The mixture was shaken for 15 minutes to prepare a solution resulting in a 25HC3S sodium salt concentration of 30 mg/mL (allowing for 3% dilution upon the dissolution of drug).
Stability data for 6 months at 2-8° C. to 40° C./75% RH for 25HC3S for injection, 30 mg/mL after constitution, are listed in Table 5. This lot of 25HC3S powder, and the vehicle used to constitute it, were gamma sterilized at approximately 28-32 kGy. The data supports a 12 month retest date when stored at 2-8° C.

`C[C@H](CCCC(C)(C)O)[C@H]1CC[C@H]2[C@@H]3CC=C4C[C@@H](OS(=O)(=O)[O-])CC[C@]4(C)[C@H]3CC[C@]12C.[Na+]` [25HC3S, 5-cholesten-3, 25-diol, 3-sulfate] showed a pH (25°C/60% RH, 3 months) of 4.83, a pH (25°C/60% RH, 6 months) of 4.73 and a pH (40°C/75% RH, 1 month) of 4.65. It also gave a pH (40°C/75% RH, 3 months) of 4.27 and a pH (40°C/75% RH, 6 months) of 4.15.

From patent US20230047788A1, “COMPOSITIONS COMPRISING 5-CHOLESTEN-3, 25-DIOL, 3-SULFATE (25HC3S) OR PHARMACEUTICALLY ACCEPTABLE SALT THEREOF AND AT LEAST ONE CYCLIC OLIGOSACCHARIDE” (Virginia Commonwealth University, priority 2016, published 2023)
